At least one structure is not confirmed: it was looked up by name or label, or the drawing left a doubt. Some results were stated once for a whole list of compounds, not compound by compound.
Key:
[1] = tested on: C57BL/6J mouse dorsal skin; experiment: Assay for hair regeneration in mice (topical treatment of shaved telogen dorsal skin); details: for Time scale of pigmentation (anagen entry) induction: topical treatment of telogen skin
aged C57BL/6J mice = experiment: Topical treatment of shaved aged mice (pilot experiments); type: in vivo, mouse; details: pilot experiments on aged mice (data not shown)
Procedure: For oral α-KB treatment, aged male and female C57BL/6J mice were obtained at 87 weeks of age (NIA aged rodent colonies). Mice were housed in a controlled SPF facility (22±2° C., 6:00-18:00, 12 h/12 h light/dark cycle) at UCLA. […] For topical α-KB treatment, aged male C57BL/6J mice were obtained at 21 months of age (NIA aged rodent colonies), shaved the following week, and topically treated with α-KB (32 mM) every other day for one month. All experiments were approved by the UCLA Chancellor's Animal Research Committee.

LC3 = experiment: Western blot of treated mouse skin: LC3; type: in vivo; details: telogen skin of mice treated topically 5 days
Procedure: (§1) Male mice were shaved and treated every other day starting on Postnatal Day 43. After 5 days, telogen skin samples were harvested and stage confirmed. […] Tissue and cell debris were removed by centrifugation and the lysate was boiled for 5 min in 1×SDS loading buffer containing 5% β-mercaptoethanol.

p62/SQSTM1 = experiment: Western blot of treated mouse skin: p62; type: in vivo; details: treated mouse telogen skin
Procedure: as §1

[2] = tested on: Beclin 1 S14 phosphorylation; experiment: Western blot of treated mouse skin: phosphorylated Beclin 1 S14; type: in vivo; details: Day 5 post-treatment
Procedure: as §1

NC(=O)c1ncn([C@@H]2O[C@H](COP(=O)(O)O)[C@@H](O)[C@H]2O)c1N [AICAR, 5-aminoimidazole-4-carboxamide ribonucleotide]
Time scale of pigmentation (anagen entry) induction [1]: 12 to 18 days

CN(C)C(=N)N=C(N)N [metformin]
Time scale of pigmentation (anagen entry) induction [1]: 12 to 18 days

CC[C@H]1/C=C/C=C/C[C@@H](C)[C@H](O)[C@@](C)(O)C(=O)[C@@H](C)[C@H](O)[C@@H](C)C(=O)[C@@H](C)[C@H](O)[C@@H](C)/C=C/C(=O)O[C@@H]2[C@H](C)[C@H](CC1)O[C@]1(CC[C@H](C)[C@H](C[C@@H](C)O)O1)[C@H]2C [oligomycin]
Time scale of pigmentation (anagen entry) induction [1]: 5 to 14 days

CO[C@H]1C[C@@H]2CC[C@@H](C)[C@@](O)(O2)C(=O)C(=O)N2CCCC[C@H]2C(=O)O[C@H]([C@H](C)C[C@@H]2CC[C@@H](O)[C@H](OC)C2)CC(=O)[C@H](C)/C=C(\C)[C@@H](O)[C@@H](OC)C(=O)[C@H](C)C[C@H](C)/C=C/C=C/C=C/1C [rapamycin]
Hair growth / regeneration in shaved aged animals (aged C57BL/6J mice): did not visibly increase
LC3 expression (Western blot) (LC3): increased
Rapid anagen entry on whole dorsal telogen skin ([1]; among treated mice): observed from time to time
Hair regeneration in female mice ([1]; female mice shaved Postnatal Day 58, topical 1.6 μM every other day): promotes hair regeneration
Hair regeneration ([1]; male mice shaved Postnatal Day 43, topical 1.6 μM every other day, Day 37 post-treatment): accelerated hair regeneration
Hair regeneration ([1]; male mice shaved Postnatal Day 43, topical 1.6 μM every other day, Day 37 post-treatment, listed as Rapamycin): induces hair regeneration
Hair regeneration ([1]; male mice shaved Postnatal Day 45, topical 100 nM every other day, Day 23 post-treatment): promotes hair regeneration
Time scale of pigmentation (anagen entry) induction [1]: 5 to 14 days
p62 expression (Western blot) (p62/SQSTM1): increased
Beclin 1 S14 phosphorylation (mTOR-dependent) [2]: increased

CCC(=O)C(=O)O [α-KB, α-ketobutyrate]
Time scale of pigmentation (anagen entry) induction [1]: 12 to 18 days
